Tested on: S. cerevisiae (BY4741 his3Δ::KanMX)
Test: Multivariate morphological analysis (CalMorph)
Type: cell-based, Saccharomyces cerevisiae
Protocol: Cells of budding yeast S. cerevisiae (BY4741 his3Δ::KanMX; hereafter, his3Δ) were cultured in 2 mL 1% Bacto yeast extract (BD Biosciences), 2% Bacto peptone (BD Biosciences), and 2% glucose (YPD) with 0, 25, 50, 75, 100, or 125 μg/mL poacic acid or a DMSO control at 25° C. for 16 h until the early log phase. The maximum concentration of the drug (125 μg/mL) was determined based on the growth inhibition rates (10%). Cell fixation, staining, and observation were performed (n=5) as described previously (Ohya et al. 2005). Images of cell shape, actin, and nuclear DNA were analyzed using the image processing software CalMorph (version 1.2), which extracted a total of 501 morphological quantitative values from at least 200 individual cells in each experiment (Ohya et al. 2005). Images were processed using Photoshop CS2 (Adobe Systems) for illustrative purposes.
To assess the morphological similarity between the cells treated with poacic acid and nonessential deletion mutants or cells treated with other cell wall-affecting drugs, their morphological profiles were compared as described previously (Ohnuki et al. 2010). To identify functional gene clusters, the most significant similar mutants (43 genes, P<0.01 after Bonferroni correction, t test) were selected as a query for GO term analysis (GO term finder in the Saccharomyces genome database).
To extract independent and characteristic features of morphology induced by poacic acid, a two-step principal component analysis was performed as described previously (Ohnuki et al. 2012). To compare phenotypic noise in the yeast population (poacic acid vs. DMSO), the noise score was calculated as described previously (Yvert et al. 2013).

COc1cc(/C=C/c2cc(/C=C/C(=O)O)cc(OC)c2O)ccc1O [poacic acid, (E)-4-Hydroxy-3-{2-[(E)-4-hydroxy-3-methoxystyryl]}-5-methoxycinnamic acid]
R value (morphological correlation) (vs ALG8 deletion mutant): 0.48 | R value (morphological correlation) (vs BNA1 deletion mutant): 0.44 | R value (morphological correlation) (vs BNI1 deletion mutant): 0.59 | R value (morphological correlation) (vs BUD6 deletion mutant): 0.45 | R value (morphological correlation) (vs CAP1 deletion mutant): 0.45 | R value (morphological correlation) (vs CAX4 deletion mutant): 0.55 | R value (morphological correlation) (vs CLC1 deletion mutant): 0.46 | R value (morphological correlation) (vs COG1 deletion mutant): 0.61 | R value (morphological correlation) (vs DFG5 deletion mutant): 0.52 | R value (morphological correlation) (vs FKS1 deletion mutant): 0.59 | R value (morphological correlation) (vs GAS1 deletion mutant): 0.58 | R value (morphological correlation) (vs GDT1 deletion mutant): 0.47 | R value (morphological correlation) (vs GUP1 deletion mutant): 0.51 | R value (morphological correlation) (vs IMP2 deletion mutant): 0.46 | R value (morphological correlation) (vs KRE1 deletion mutant): 0.53 | R value (morphological correlation) (vs MMS2 deletion mutant): 0.46 | R value (morphological correlation) (vs MNN11 deletion mutant): 0.55 | R value (morphological correlation) (vs MON2 deletion mutant): 0.54 | R value (morphological correlation) (vs NPY1 deletion mutant): 0.61 | R value (morphological correlation) (vs OCH1 deletion mutant): 0.57 | R value (morphological correlation) (vs OPT2 deletion mutant): 0.44 | R value (morphological correlation) (vs OST3 deletion mutant): 0.61 | R value (morphological correlation) (vs OST4 deletion mutant): 0.61 | R value (morphological correlation) (vs PEA2 deletion mutant): 0.45 | R value (morphological correlation) (vs PEP3 deletion mutant): 0.46 | R value (morphological correlation) (vs PEP5 deletion mutant): 0.46 | R value (morphological correlation) (vs PER1 deletion mutant): 0.57 | R value (morphological correlation) (vs POC4 deletion mutant): 0.45 | R value (morphological correlation) (vs PPS1 deletion mutant): 0.44 | R value (morphological correlation) (vs RHO4 deletion mutant): 0.51 | R value (morphological correlation) (vs SNC2 deletion mutant): 0.60 | R value (morphological correlation) (vs SUR4 deletion mutant): 0.61 | R value (morphological correlation) (vs SWA2 deletion mutant): 0.59 | R value (morphological correlation) (vs TPM1 deletion mutant): 0.51 | R value (morphological correlation) (vs UME1 deletion mutant): 0.47 | R value (morphological correlation) (vs VPS16 deletion mutant): 0.45 | R value (morphological correlation) (vs VPS33 deletion mutant): 0.45 | R value (morphological correlation) (vs VPS52 deletion mutant): 0.48 | R value (morphological correlation) (vs YAL058C-A deletion mutant): 0.60 | R value (morphological correlation) (vs YFR016C deletion mutant): 0.45 | R value (morphological correlation) (vs YLR111W deletion mutant): 0.60 | R value (morphological correlation) (vs YOL013W-A deletion mutant): 0.51 | R value (morphological correlation) (vs YPL184C deletion mutant): 0.46

Source: patent publication US11985974B2, “Antimicrobial ferulic acid derivatives and uses thereof” (WISCONSIN ALUMNI RESEARCH FOUNDATION, priority 2014, dated 2024)
